Data from paper doi:10.1101/153403.
Results are given in words; binding and its absence hold for the method and conditions named.

Amino acid sequences for entries named in this document (tags omitted). Residues count along the entry.
UniProt P19883, residues 30-317: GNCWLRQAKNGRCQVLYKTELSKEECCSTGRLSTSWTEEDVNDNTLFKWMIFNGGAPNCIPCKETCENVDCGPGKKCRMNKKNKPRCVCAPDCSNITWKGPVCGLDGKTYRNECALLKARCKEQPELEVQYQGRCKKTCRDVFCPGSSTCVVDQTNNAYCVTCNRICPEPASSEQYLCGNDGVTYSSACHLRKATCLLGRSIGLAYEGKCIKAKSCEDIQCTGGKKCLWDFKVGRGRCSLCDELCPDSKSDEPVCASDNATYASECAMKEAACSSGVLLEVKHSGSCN

Biological target: T1, unprocessed human pro-myostatin (pro-MSTN) (human) (UniProt O14793)
T1 sequence: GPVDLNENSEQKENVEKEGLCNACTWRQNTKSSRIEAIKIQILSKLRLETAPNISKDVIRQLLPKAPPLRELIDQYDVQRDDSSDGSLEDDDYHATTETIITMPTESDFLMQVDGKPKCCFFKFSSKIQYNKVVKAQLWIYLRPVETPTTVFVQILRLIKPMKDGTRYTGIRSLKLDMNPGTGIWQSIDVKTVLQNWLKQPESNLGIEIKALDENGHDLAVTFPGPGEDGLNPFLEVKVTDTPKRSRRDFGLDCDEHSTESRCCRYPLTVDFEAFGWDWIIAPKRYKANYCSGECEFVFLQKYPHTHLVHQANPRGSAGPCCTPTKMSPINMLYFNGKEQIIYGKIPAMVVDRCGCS
Assay: BLI

- binding: no binding (tested: 500 nM)
Substance: follistatin-288 (from UniProt P19883-2 30-317)
